For this assay, the target named is specificity protein 1 (Sp1) (human (endogenous in MCF7)) (UniProt P08047). Kind of assay: co-IP; MCF7 cell lysates (RIPA lysis buffer) immunoprecipitated with anti-Sp1 (anti-TIM) antibody or control IgG, immunoblotted with anti-TIM (anti-Sp1) antibody. For orientation: In western blotting, separated proteins are transferred to a membrane and probed.

Chains of the proteins cited; added tags and fusions are not shown.
UniProt P08047: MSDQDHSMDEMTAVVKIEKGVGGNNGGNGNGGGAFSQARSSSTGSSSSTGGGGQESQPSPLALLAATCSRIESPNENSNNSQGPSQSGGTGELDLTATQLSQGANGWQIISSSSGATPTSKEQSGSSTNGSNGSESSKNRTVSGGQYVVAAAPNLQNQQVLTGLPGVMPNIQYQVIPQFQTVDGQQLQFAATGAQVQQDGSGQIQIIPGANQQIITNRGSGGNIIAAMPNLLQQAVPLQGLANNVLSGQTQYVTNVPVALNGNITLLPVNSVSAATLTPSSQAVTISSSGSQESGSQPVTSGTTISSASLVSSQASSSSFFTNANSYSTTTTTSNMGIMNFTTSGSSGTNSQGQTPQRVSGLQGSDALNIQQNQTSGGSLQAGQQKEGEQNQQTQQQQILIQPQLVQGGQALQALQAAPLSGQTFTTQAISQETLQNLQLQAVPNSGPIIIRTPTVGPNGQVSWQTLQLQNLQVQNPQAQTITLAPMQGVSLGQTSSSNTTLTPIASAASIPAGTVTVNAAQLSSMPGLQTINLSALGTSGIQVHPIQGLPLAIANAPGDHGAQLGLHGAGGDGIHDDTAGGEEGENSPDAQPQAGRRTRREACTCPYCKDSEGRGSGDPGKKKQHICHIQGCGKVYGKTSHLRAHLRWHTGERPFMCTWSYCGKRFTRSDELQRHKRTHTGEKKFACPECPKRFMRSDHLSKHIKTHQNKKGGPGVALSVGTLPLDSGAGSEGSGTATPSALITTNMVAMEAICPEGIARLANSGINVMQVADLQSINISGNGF
UniProt Q9UNS1: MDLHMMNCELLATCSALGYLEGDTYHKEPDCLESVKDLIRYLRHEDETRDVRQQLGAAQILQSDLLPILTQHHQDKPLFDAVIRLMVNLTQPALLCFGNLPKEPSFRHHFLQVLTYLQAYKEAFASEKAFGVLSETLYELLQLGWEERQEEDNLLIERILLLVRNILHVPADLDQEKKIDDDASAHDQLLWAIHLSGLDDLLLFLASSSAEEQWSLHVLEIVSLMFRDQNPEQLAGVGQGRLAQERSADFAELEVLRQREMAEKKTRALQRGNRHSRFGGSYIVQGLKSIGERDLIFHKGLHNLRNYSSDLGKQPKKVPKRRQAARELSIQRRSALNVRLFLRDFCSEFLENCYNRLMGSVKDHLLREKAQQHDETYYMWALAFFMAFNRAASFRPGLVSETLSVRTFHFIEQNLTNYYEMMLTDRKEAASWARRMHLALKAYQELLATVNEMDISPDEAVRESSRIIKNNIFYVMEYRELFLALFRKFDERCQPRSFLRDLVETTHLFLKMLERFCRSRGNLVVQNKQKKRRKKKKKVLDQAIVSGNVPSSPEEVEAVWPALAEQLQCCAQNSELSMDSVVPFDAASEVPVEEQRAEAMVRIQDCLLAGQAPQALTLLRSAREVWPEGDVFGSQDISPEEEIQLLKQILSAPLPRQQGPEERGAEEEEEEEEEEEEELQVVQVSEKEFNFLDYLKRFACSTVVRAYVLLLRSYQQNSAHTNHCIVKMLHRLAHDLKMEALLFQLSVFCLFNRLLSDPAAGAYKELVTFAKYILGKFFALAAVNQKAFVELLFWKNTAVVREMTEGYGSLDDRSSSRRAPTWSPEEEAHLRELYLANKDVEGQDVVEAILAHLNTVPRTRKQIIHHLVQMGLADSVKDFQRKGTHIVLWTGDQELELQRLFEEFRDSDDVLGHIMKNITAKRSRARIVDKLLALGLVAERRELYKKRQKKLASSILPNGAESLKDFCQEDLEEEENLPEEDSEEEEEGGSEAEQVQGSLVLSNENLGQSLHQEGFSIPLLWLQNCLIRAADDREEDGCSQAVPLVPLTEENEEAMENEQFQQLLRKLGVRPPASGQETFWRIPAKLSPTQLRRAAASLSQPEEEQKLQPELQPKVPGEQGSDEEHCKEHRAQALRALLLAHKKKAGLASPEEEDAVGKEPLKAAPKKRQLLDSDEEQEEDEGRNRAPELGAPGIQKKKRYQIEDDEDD

These are yes or no findings as the source states them, for the method shown. In cells and extracts the contact can be indirect. Some entries that bind do so weakly or less than the wild type.

We go through one sequence from article PMC7581802.

For the sequence “TIMELESS circadian regulator (TIM) (from UniProt Q9UNS1 1-1208)”, the binding entry is “binds”.
